PubChem BioAssay AID1259331 – Drosophila RNAi Screening Center, 2017
The deposit covers about 3,100 reagents; this is an unselected part. 126 of all reagents (4.1%) were called active. 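Calls are per reagent; zinc was so toxic that few knock-downs lowered ATP further, so most hits raise ATP.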 Raw values are not corrected between plates. Not given: the amount of reagent.

Assay: 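Knock-downs that alter ATP level after a high zinc chloride dose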 (primary screen)
System: Drosophila S2R+ cells
Reagent: long dsRNA against Drosophila genes
Duration: 5 days (4 days knock-down, then 1 day zinc)
Treatment: zinc chloride at 15 mM final level for 1 day
Detection: 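Total cellular ATP measured by luciferase luminescence as a viability proxy, turned into Z scores from three plate copies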
Direction: mean Z score: higher = more ATP than other wells, better survival under zinc; ATP luminescence: higher = more ATP, more viable cells
Active means: 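a reagent is called a hit when its Z score is above 1.5 or below -1.5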
Calls: active = hit, ATP up or down; inactive = not a hit

Knock-down of KdelR (KDEL receptor) [DRSC03353] came out at: mean Z score 0.0427; ATP luminescence, replicate 1 = 56377; ATP luminescence, replicate 2 = 57295; inactive.
After knock-down of CG18549 [DRSC15347] the results were mean Z score 0.612; ATP luminescence, replicate 1 = 39041; ATP luminescence, replicate 2 = 66463; inactive.
After knock-down of CG18549 [DRSC28847], the record shows mean Z score 0.935; ATP luminescence, replicate 1 = 76685; ATP luminescence, replicate 2 = 74896; inactive.
CG1698 [DRSC06640] scored mean Z score -0.212; ATP luminescence, replicate 1 = 27924; ATP luminescence, replicate 2 = 29856; inactive.
CG1698 [DRSC24314] scored mean Z score 0.607; ATP luminescence, replicate 1 = 69567; ATP luminescence, replicate 2 = 71968; inactive.
Against CG13409 [DRSC14585] the deposit lists mean Z score -0.0704; ATP luminescence, replicate 1 = 36668; ATP luminescence, replicate 2 = 56585; inactive.
With knock-down of CG13409 [DRSC39736], the screen gave mean Z score 0.173; ATP luminescence, replicate 1 = 69893; ATP luminescence, replicate 2 = 55007; inactive.
Knock-down of mrva (minerva) [DRSC21842] came out at: mean Z score -0.0459; ATP luminescence, replicate 1 = 49246; ATP luminescence, replicate 2 = 47600; inactive.
With knock-down of mrva (minerva) [DRSC25508], the record shows mean Z score 0.679; ATP luminescence, replicate 1 = 63410; ATP luminescence, replicate 2 = 65880; inactive.
After knock-down of CG1246 [DRSC08275] the results were mean Z score -0.0464; ATP luminescence, replicate 1 = 75844; ATP luminescence, replicate 2 = 70374; inactive.
With knock-down of CG1246 [DRSC39873], the record shows mean Z score -0.502; ATP luminescence, replicate 1 = 47189; ATP luminescence, replicate 2 = 54905; inactive.
Against ics (icarus) [DRSC29655], the values are mean Z score -0.0487; ATP luminescence, replicate 1 = 62535; ATP luminescence, replicate 2 = 58716; inactive.
Against nAChRalpha2 (nicotinic Acetylcholine Receptor alpha2) [DRSC17009], the values are mean Z score 0.369; ATP luminescence, replicate 1 = 52693; ATP luminescence, replicate 2 = 48843; inactive.
With knock-down of nAChRalpha2 (nicotinic Acetylcholine Receptor alpha2) [DRSC24487], the record shows mean Z score 0.977; ATP luminescence, replicate 1 = 70630; ATP luminescence, replicate 2 = 70424; inactive.
Oatp58Dc (Organic anion transporting polypeptide 58Dc) [DRSC04363] showed mean Z score -0.175; ATP luminescence, replicate 1 = 27076; ATP luminescence, replicate 2 = 31262; inactive.
With knock-down of Oatp58Dc (Organic anion transporting polypeptide 58Dc) [DRSC39686] the results were mean Z score 0.144; ATP luminescence, replicate 1 = 66257; ATP luminescence, replicate 2 = 59226; inactive.
For CG7255 [DRSC10790], the entry reads mean Z score -0.361; ATP luminescence, replicate 1 = 31690; ATP luminescence, replicate 2 = 32599; inactive.
Silencing of CG34450 [DRSC17822] gave: mean Z score -0.158; ATP luminescence, replicate 1 = 44771; ATP luminescence, replicate 2 = 44891; inactive.
Knock-down of CG34450 [DRSC25085] came out at: mean Z score -0.0688; ATP luminescence, replicate 1 = 59946; ATP luminescence, replicate 2 = 58111; inactive.
With knock-down of CG11262 [DRSC09831] the results were mean Z score -0.0719; ATP luminescence, replicate 1 = 73546; ATP luminescence, replicate 2 = 62587; inactive.
Depletion of CG11262 [DRSC39465] gave: mean Z score 0.593; ATP luminescence, replicate 1 = 60529; ATP luminescence, replicate 2 = 59037; inactive.
Silencing of Or85e (Odorant receptor 85e) [DRSC16768] gave: mean Z score 0.286; ATP luminescence, replicate 1 = 33593; ATP luminescence, replicate 2 = 68263; inactive.
Knock-down of nAChRalpha5 (nicotinic Acetylcholine Receptor alpha5) [DRSC01946] resulted in: mean Z score 0.396; ATP luminescence, replicate 1 = 55813; ATP luminescence, replicate 2 = 43674; inactive.
For PlexB (Plexin B) [DRSC17177], the entry reads mean Z score 0.582; ATP luminescence, replicate 1 = 74712; ATP luminescence, replicate 2 = 76719; inactive.
Knock-down of Ir60b (Ionotropic receptor 60b) [DRSC04217] came out at: mean Z score -0.12; ATP luminescence, replicate 1 = 49829; ATP luminescence, replicate 2 = 41413; inactive.
After knock-down of Nup62 (Nucleoporin 62kD) [DRSC06970] the results were mean Z score -0.161; ATP luminescence, replicate 1 = 30660; ATP luminescence, replicate 2 = 30627; inactive.
With knock-down of Or63a (Odorant receptor 63a) [DRSC08681] the results were mean Z score 0.101; ATP luminescence, replicate 1 = 71145; ATP luminescence, replicate 2 = 76496; inactive.
Silencing of CG9864 [DRSC07346] resulted in: mean Z score -0.33; ATP luminescence, replicate 1 = 59174; ATP luminescence, replicate 2 = 65262; inactive.
Depletion of CG9864 [DRSC28765] gave: mean Z score -0.303; ATP luminescence, replicate 1 = 55676; ATP luminescence, replicate 2 = 57802; inactive.
After knock-down of subdued [DRSC15137], the screen gave mean Z score -0.504; ATP luminescence, replicate 1 = 39988; ATP luminescence, replicate 2 = 40622; inactive.
After knock-down of subdued [DRSC39505] the results were mean Z score -0.344; ATP luminescence, replicate 1 = 49137; ATP luminescence, replicate 2 = 40478; inactive.

Reprinted from the listing for reference:
Or85e (Odorant receptor 85e) [DRSC16768]: mean Z score = 0.286; ATP luminescence, replicate 1 = 33593; ATP luminescence, replicate 2 = 68263; activity call = inactive
nAChRalpha5 (nicotinic Acetylcholine Receptor alpha5) [DRSC01946]: mean Z score = 0.396; ATP luminescence, replicate 1 = 55813; ATP luminescence, replicate 2 = 43674; activity call = inactive
PlexB (Plexin B) [DRSC17177]: mean Z score = 0.582; ATP luminescence, replicate 1 = 74712; ATP luminescence, replicate 2 = 76719; activity call = inactive
